Laboratory results reported in PubChem BioAssay AID1347423 (Functional Genomics Laboratory (NCATS/FGL), 2020).
In all, about 52,000 sequences went through this assay and about 210 (0.4%) were called active.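 The calls were made as follows: active = gene whose silencing raises cell survival under the drug, median off-target-corrected z-score across its silencing RNAs 2 or more; inactive = the rest.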 The list shows a part of the results.

Assay: Resistance to Poly (ADP-Ribose) Polymerase inhibitor: Gene Identification via Genome-wide siRNA Screen
Settings: mouse BRCA2 R2336H ES cells, olaparib, CellTiter-Glo viability; active compounds read high
Method in brief: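 Genome-wide siRNA screen (3 siRNAs/gene, 20 nM) in mouse ES cells carrying hypomorphic BRCA2 R2336H; olaparib 500 nM added 48 h post-transfection, CellTiter-Glo viability 72 h later. Normalized to plate-median negative control; MAD z-scores, gene median, seed-adjusted.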

Sequence | z-score
GGCUUUCUAAGAGACUAUUTT against Wnt7a | inactive: 1.05
GCCUAUGCCCUGCAUAAACTT against Hdac8 | inactive: 0.227
GGUGAGAAAAGUGCAAGGCTT against Rps6kb2 | inactive: -1.9
GGAAAUUUGCUCAUUCUAATT against Olfr1204 | inactive: -0.324
CGACGAAGCGACCAUUCUUTT against Igj | inactive: 0.192
GGAUUCAGGAACACGGAGATT against D17H6S53E | inactive: 1.9
GCAAUAACAGAUCUCGUUUTT against B3galt5 | inactive: 0.983
GGCUCUCACAGAUCCUAAATT against Abcd3 | inactive: 0.182
GGAACCUGUAAAAGCCUCUTT against Il1f6 | inactive: 0.139
CCAGAUGUUGGAUAAAACGTT against Fbxw10 | inactive: -0.204
CCAAUGCUGAGGAGUCUUCTT against BC030335 | inactive: -1.83
GGGUUUUCCGCAUCUUCAATT against Kcna3 | inactive: -0.362
GGAGAUAACAGAUCUGUUUTT against 1810073G14Rik | inactive: -0.0931
CCCUGUGUUCACGUUUUACTT against Mrps33 | inactive: 1.22
GGGAUCAAGGCUAGAAGAGTT against Stdp1 | inactive: -0.854
GGACCAAGUACCAGACUGATT against Krt1-4 | inactive: -1.58
CCCACAGUACAUUCUAAAATT against Arsb | inactive: -0.303
CCUAUCCCAAUGAGGAGAATT against Lman2l | inactive: -2.06
CCCUAACUCAAUGUACCAGTT against Slc27a1 | inactive: -0.67
GGAAAGUAAGACCGUAAGUTT against A230072I16Rik | inactive: 0.545
GGAAGGAAUUCUUCAACCUTT against Hsd3b2 | inactive: -0.882
GGAAAACAUUUAAACAGUGTT against 5830406J20Rik | inactive: -0.424
GCCAUGUGAUCGAAUCCAGTT against Cyln2 | inactive: 0.467
GGGAUUGCUACAGAGACUCTT against Gprk6 | inactive: 1.03
CGUGAAAGGCACAAAAAAGTT against Semcap2 | inactive: 0.83
GCUGAUGUUAAAUUCGCAGTT against Serpinb3b | inactive: 1.35
CGAUCAAAGAACCUGAAAGTT against B830021E24Rik | inactive: -1.4
GGAACUAGAAGGUGUUUUATT against Ythdf1 | inactive: 1.2
GGUUCUCCUUGUUUUGCUGTT against 9230107O10Rik | inactive: 0.382

In a second layout: results already given.
GCAAUAACAGAUCUCGUUUTT against B3galt5
  z-score: inactive: 0.983
CCCUGUGUUCACGUUUUACTT against Mrps33
  z-score: inactive: 1.22
